# Reference: patent US12673109
# Protein sequences, listed by entry. Tags and fused reporters are not part of them. Lines headed by an entry give the natural chain unless they say otherwise; changes in a name come on top.
# UniProt P60568: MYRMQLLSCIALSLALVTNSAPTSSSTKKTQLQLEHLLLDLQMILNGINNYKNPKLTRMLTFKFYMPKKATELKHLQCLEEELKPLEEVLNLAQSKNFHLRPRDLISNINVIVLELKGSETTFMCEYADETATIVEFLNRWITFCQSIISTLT
# These are yes or no findings as the source states them, for the method shown. Some entries that bind do so weakly or less than the wild type.
# Molecular target: T1, IL-2 receptor (IL-2R) on mouse CD3+CD4+ T cells (sub-population corresponding to regulatory T cells) (mouse) (UniProt P01590+P16297+P34902)
# T1 sequence (looked up) 1: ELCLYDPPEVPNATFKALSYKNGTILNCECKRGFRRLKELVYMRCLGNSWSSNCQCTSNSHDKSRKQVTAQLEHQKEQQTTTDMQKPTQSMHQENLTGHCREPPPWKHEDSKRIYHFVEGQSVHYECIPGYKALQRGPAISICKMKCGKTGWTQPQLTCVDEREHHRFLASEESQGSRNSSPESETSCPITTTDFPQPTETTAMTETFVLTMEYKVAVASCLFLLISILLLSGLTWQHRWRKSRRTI
# T1 sequence (looked up) 2: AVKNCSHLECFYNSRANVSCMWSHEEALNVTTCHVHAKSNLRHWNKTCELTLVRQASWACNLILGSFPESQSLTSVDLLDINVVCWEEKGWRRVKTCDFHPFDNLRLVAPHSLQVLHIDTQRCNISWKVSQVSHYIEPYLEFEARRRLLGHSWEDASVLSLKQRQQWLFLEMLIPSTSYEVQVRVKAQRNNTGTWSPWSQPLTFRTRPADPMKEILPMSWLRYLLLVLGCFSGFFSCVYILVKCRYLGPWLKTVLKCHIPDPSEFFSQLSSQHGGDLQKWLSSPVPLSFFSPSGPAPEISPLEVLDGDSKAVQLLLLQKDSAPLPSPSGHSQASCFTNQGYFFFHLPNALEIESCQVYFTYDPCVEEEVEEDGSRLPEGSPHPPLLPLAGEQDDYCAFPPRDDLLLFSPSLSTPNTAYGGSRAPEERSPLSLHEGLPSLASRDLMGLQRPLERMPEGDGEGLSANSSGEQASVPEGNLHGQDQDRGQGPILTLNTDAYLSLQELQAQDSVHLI
# T1 sequence (looked up) 3: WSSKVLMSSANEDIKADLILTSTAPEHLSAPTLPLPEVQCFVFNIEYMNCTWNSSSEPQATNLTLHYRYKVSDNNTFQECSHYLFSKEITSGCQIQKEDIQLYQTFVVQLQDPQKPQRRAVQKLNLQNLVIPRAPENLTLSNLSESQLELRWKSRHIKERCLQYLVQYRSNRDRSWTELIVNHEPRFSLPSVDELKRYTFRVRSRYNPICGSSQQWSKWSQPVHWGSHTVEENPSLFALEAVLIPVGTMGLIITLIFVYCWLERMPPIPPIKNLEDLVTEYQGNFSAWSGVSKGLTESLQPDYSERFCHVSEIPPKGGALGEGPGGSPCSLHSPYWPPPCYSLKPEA
# Assay: flow cytometry (FACS): FITC-IL-2 incubated 1 h at 4 °C with sorted mouse CD3+CD4+ T cells, washed at 4 °C to prevent receptor internalization
substance,measurement,value
"IL2-FITC conjugate (recombinant human IL-2, SEQ ID NO:4, conjugated with FITC-maleimide) (from UniProt P60568 21-153) (ligand)",binding,binds
